Test results reported in PubChem BioAssay AID540276 (National Center for Advancing Translational Sciences (NCATS), 2011).
Among all 300,000 compounds or so, about 5,400 (1.8%) were called active. The shares of active, inactive and inconclusive entries below differ from those in the screen. Calls come from the whole dose curve; tested in HEK293 cells. Potencies of inconclusive entries are doubtful fits and often do not repeat.

experiment: qHTS for inhibitors of binding or entry into cells for Marburg Virus; settings: Marburg virus pseudotyped entry inhibition, cell reporter; activity change, negative = inhibition: at 37.8 µM (top of the series) unless noted
% is set by controls: 0 for no effect and ±100 for the full control effect; potency is the fitted concentration of half-maximal effect.

SMILES	Potency	activity change, negative = inhibition
COc1ccc(/C=C/C(=O)NC(=S)Nc2ccc(S(=O)(=O)Nc3cc(OC)ncn3)cc2)cc1	inconclusive: 35.5 µM [activator, partial curve, poor fit]	–
CC(/C=N/NC(=O)c1cc(-c2cccn2C)n[nH]1)=C\c1ccccc1	inconclusive: 0.562 µM [inhibitor, full curve, poor fit]	–
O=C(O)CSc1nc2c(c(C(F)(F)F)n1)CCc1ccccc1-2	inconclusive: 5.62 µM [inhibitor, single point]	–
O=C1c2[nH]nc(-c3ccccc3O)c2C(c2ccc(F)cc2)N1Cc1ccco1 (stereo unspecified)	inconclusive: 20.6 µM [inhibitor, partial curve]	–
CCOC(=O)N1CCC(N(C(=O)Nc2ccc(CC)cc2)C(C)CC)CC1 (stereo unspecified)	–	inactive: 10.5%
CCn1c(COc2ccccc2OC)nnc1SCC#N	inconclusive: 14.6 µM [inhibitor, partial curve, poor fit]	–
CCOC(=O)N1CCN(S(=O)(=O)c2cc(-c3nn4c(C)nnc4c4ccccc34)ccc2C)CC1	inconclusive: 8.91 µM [inhibitor, partial curve]	–
O=C1C(C=NCc2ccccn2)=C(O)c2ccccc21	–	inactive: 7.83%
COc1ccc(CNC(=O)N2CCN(C(=O)c3ccccc3)CC2)cc1	inconclusive: 4.47 µM [activator, partial curve, poor fit]	–
COc1ccccc1C(=O)Nc1cc(Cl)ccc1-n1cncn1	–	inactive: -3.25% [at 46.1 µM]
Cc1c(NS(=O)(=O)c2ccccc2)ccc([N+](=O)[O-])c1Cl	inconclusive: 12.6 µM [inhibitor, partial curve, poor fit]	–
CCNC(=S)N1CCc2cc(OC)c(OC)cc2C1COc1ccc(OC)cc1 (stereo unspecified)	inconclusive: 3.98 µM [inhibitor, partial curve, poor fit]	–
COc1ccc(OC)c(/C=N/NC(=O)CCc2ccc(O)c(O)c2)c1	inconclusive: 1.26 µM [inhibitor, single point]	–
Cc1cc(O)c(S(=O)(=O)c2ccccc2)c(C)c1NS(=O)(=O)c1ccccc1	inconclusive: 7.94 µM [inhibitor, partial curve, poor fit]	–
O=C(NC(=S)Nc1ccccc1)c1cc(-c2ccccc2)nc2ccccc12	inconclusive: 7.08 µM [inhibitor, partial curve]	–
Cc1cccc(N(C(=O)c2ccco2)C(C(=O)NC2CCCC2)c2cccnc2)c1C (stereo unspecified)	–	inactive: -26.6% [at 46.1 µM]
O=C(Nc1cccc(S(=O)(=O)c2cccc(NC(=O)c3ccco3)c2)c1)c1ccco1	inconclusive: 11.2 µM [inhibitor, partial curve, poor fit]	–
COc1cc(-c2nn3c(-c4ccccc4)nnc3s2)cc(OC)c1OC	inconclusive: 6.51 µM [inhibitor, single point]	–
O=C(NC1CCS(=O)(=O)C1)/C(=C\c1ccco1)NC(=O)c1ccccc1 (stereo unspecified)	–	inactive: -1.26% [at 46.1 µM]
O=C(Nc1nnc(SCc2ccc(F)cc2)s1)c1ccccn1	inconclusive: 2.51 µM [inhibitor, partial curve, poor fit]	–
CSCCC(NS(=O)(=O)c1ccc(Cl)cc1)C(=O)O (stereo unspecified)	inconclusive: 0.891 µM [activator, full curve, poor fit]	–

By substructure: the entries above containing a Cl atom.
SMILES	Potency	activity change, negative = inhibition
COc1ccccc1C(=O)Nc1cc(Cl)ccc1-n1cncn1	–	inactive: -3.25% [at 46.1 µM]
Cc1c(NS(=O)(=O)c2ccccc2)ccc([N+](=O)[O-])c1Cl	inconclusive: 12.6 µM [inhibitor, partial curve, poor fit]	–
CSCCC(NS(=O)(=O)c1ccc(Cl)cc1)C(=O)O (stereo unspecified)	inconclusive: 0.891 µM [activator, full curve, poor fit]	–

Remaining list, next part

SMILES	Potency	activity change, negative = inhibition
CCCOc1ccc(C(=O)C(CN2CCCC2)c2ccccc2)cc1 (stereo unspecified)	inconclusive: 7.31 µM [inhibitor, partial curve, poor fit]	–
Clc1ccc(CSc2nc3ncccc3[nH]2)cc1	inconclusive: 2.82 µM [activator, partial curve, poor fit]	–
CCC(=O)N1CCc2cc(OC)c(OC)cc2C1COc1ccc(C(=O)OC)cc1 (stereo unspecified)	inconclusive: 29.1 µM [inhibitor, single point]	–
Cc1csc(SCC(=O)Nc2cc(C(C)(C)C)nn2-c2ccccc2)n1	inconclusive: 14.6 µM [inhibitor, single point]	–
COc1ccc(C(=O)N=c2sccn2C)cc1	inconclusive: 7.08 µM [activator, partial curve, poor fit]	–
Cc1ccc2nc(N/C(N)=N/S(=O)(=O)c3ccc([N+](=O)[O-])cc3)nc(C)c2c1	inconclusive: 22.4 µM [inhibitor, single point]	–
Cc1cccc(C)c1N1CCN(c2ccc3nnc(C(F)(F)F)n3n2)CC1	inconclusive: 28.2 µM [inhibitor, single point]	–
COc1cccc(Cn2cc(S(=O)(=O)c3ccc(C)cc3)c(=O)c3cc4c(cc32)OCO4)c1	inconclusive: 25.1 µM [inhibitor, single point]	–
CC(=O)N1N=C(c2ccc(C)cc2)CC1c1ccc2c(c1)OCO2 (stereo unspecified)	inconclusive: 3.55 µM [activator, single point]	–
CCCN(CCC)S(=O)(=O)c1ccc(C(=O)Nc2nnc(-c3cccc(OC)c3)o2)cc1	inconclusive: 3.55 µM [inhibitor, full curve, poor fit]	–
O=C(Nc1ccc2c(c1)OCO2)c1ccc2nc[nH]c2c1	inconclusive: 3.16 µM [activator, single point]	–
O=C(O)c1csc(-c2ccc(Cl)cc2)n1	inconclusive: 28.2 µM [activator, single point]	–
Cc1cccc2[nH]c(CN(C)C(=O)C3CCC(=O)N(CCc4ccccc4)C3)nc12 (stereo unspecified)	–	inactive: 4.9%
O=C(Nc1nonc1-c1ccc(Br)cc1)c1ccco1	–	inactive: 1.04% [at 46.1 µM]
O=C(CNC(=S)N(CCCN1CCOCC1)Cc1cccs1)NC1CCCCCCC1	inconclusive: 15.8 µM [inhibitor, single point]	–
NC(=S)NN=C1c2ccccc2-c2c(F)c(F)c(F)c(F)c21	inconclusive: 12.6 µM [inhibitor, partial curve, poor fit]	–
CS(=O)(=O)Nc1cccc(C(=O)CC2(O)C(=O)Nc3ccccc32)c1 (stereo unspecified)	–	inactive: 8.67%
CC1C=CC(C(C2C(=O)CC(C)(C)CC2=O)C2C(=O)CC(C)(C)CC2=O)S1 (stereo unspecified)	–	inactive: -6.31% [at 46.1 µM]
Cc1cc(NC(=O)C(C)SCC(=O)N(Cc2ccccc2)c2ccccc2)no1 (stereo unspecified)	active: 3.55 µM	–
CC(=O)NCCOc1ccc2oc3ccccc3c2c1	inconclusive: 31.6 µM [activator, single point]	–
